Reference: article PMC12668308, “A Novel Antimalarial Agent that Inhibits Protein Synthesis in Plasmodium falciparum” (Angewandte Chemie (International Ed. in English), 2025)
Values joined by “and” are separate entries in the source; they are usually repeats but may differ in a detail not shown here. Equal values may be shown once. The amount applied is not stated for every result.

Test system: Dd2b2
Assay: Resistance selection
Assay type: cell-based, Plasmodium falciparum
Settings: Dd2b2, initial inoculum 2x10^9, 3x-5x-7x IC50 pressure; flasks 1-3

CN1CCN(Cc2ccc(O)c(NC(=O)c3cccc(Oc4cc(C(F)(F)F)ccn4)c3)c2)CC1 [Compound 31, N-(2-hydroxy-5-((4-methylpiperazin-1-yl)methyl)phenyl)-3-((4-(trifluoromethyl)pyridin-2-yl)oxy)benzamide]
Day positive (first ring was observed in the culture): 19 and 22
